Where two headings read alike, the source gives them in different places.

For this assay, the system named is IFNα-stimulated STAT-1 phosphorylation (pSTAT-1). The conditions noted are these: Homo sapiens, read-out: IC50, IFN-α stimulated pSTAT-1.

As a reminder, the IC50 is the concentration at which inhibition is half-maximal. `CCS(=O)(=O)N1CC(CC#N)(n2cc(-c3ncnc4[nH]ccc34)cn2)C1` [baricitinib, Baricitinib]: the IC50 (B-cell) stood at 190 nM, the IC50 (CD4+ T) was 51.1 nM, the IC50 (Monocyte) was 138 nM and the IC50 (T-cell) worked out at 43.3 nM.
